Test results: patent publication US6472141B2, “Kinase assays using polycations” (Caliper Technologies Corp., priority 1999, dated 2002)

Test system: poly-D-Lysine
Assay: Fluorescence polarization of CDK2 substrate and phosphorylated product on addition of poly-D-lysine
Format: binding
[1] = in the absence of polylysine, 50 mM TAPS pH 9.0
[2] = upon addition of polylysine, 50 mM TAPS pH 9.0

Substance | fluorescence polarization [1] | fluorescence polarization [2] | fluorescence polarization (upon addition of a large excess of polylysine) [mP]
Flourescein-QSPKKG-CONH2 [substrate, ID NO; 12] | about 38 mP | about 42 mP | 
product: phosphorylated product of Flourescein-QSPKKG-CONH2 after incubation with ATP and CDK2 | about 38 mP | 72 mP | ~100
